PubChem BioAssay AID1224826 – NIAID, 2016
Test: 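Regulators of Tlr4 signalling leading to Tnf-alpha expression in macrophages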 (primary screen). Cell system: RAW264.7 G9 macrophages from mouse bearing reporters for p65 (GFP) and the Tnf promoter (mCherry). Reagents: siRNA pool against mouse genes, 100 nM. Time to read-out: 16 h of LPS stimulation, after 2 days of siRNA transfection. Conditions: bacterial lipopolysaccharide (Salmonella minnesota R595), 10 ng/ml. Detection: 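Nuclear mCherry signal of the Tnf promoter reporter measured by imaging after background removal, scaled to each plate median and turned into robust z-scores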. Direction: Tnf reporter robust z-score: higher = stronger Tnf promoter reporter signal after LPS. Hit rule: 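Called active when robust z-score is at most -1.3, matching the median of the Tlr4 knock-down control, or over 3; control wells and wells with under 50 cells never active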. Meaning of the calls: active = Tnf reporter clearly lowered or raised; inactive = no clear change in Tnf reporter.
This is an unselected part of about 17,000 reagents tested. About 1,110 of all reagents (6.6%) were called active. 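Active means lowered or raised reporter signal; replicate intensities are raw and not normalised per plate.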 The numbers tell different reagents against one gene apart. Not all columns of the deposit are shown.

gene	reagent	Tnf reporter robust z-score	fewer than 50 cells in well	outcome
H2-T23 (histocompatibility 2, T region locus 23)	1	0.63	enough cells in well	inactive
Jak3 (Janus kinase 3)	1	0.86	enough cells in well	inactive
Or10a3m (olfactory receptor family 10 subfamily A member 3M)	1	1.33	enough cells in well	inactive
Rhoc (ras homolog family member C)	1	0.59	enough cells in well	inactive
Mvk (mevalonate kinase)	1	-0.41	enough cells in well	inactive
Khdc3 (KH domain containing 3, subcortical maternal complex member)	1		fewer than 50 cells per well; well left out of calls	inactive
Omg (oligodendrocyte myelin glycoprotein)	1	2.29	enough cells in well	inactive
Gss (glutathione synthetase)	1	-0.75	enough cells in well	inactive
Neurod4 (neurogenic differentiation 4)	1	1.1	enough cells in well	inactive
Arap3 (ArfGAP with RhoGAP domain, ankyrin repeat and PH domain 3)	1		fewer than 50 cells per well; well left out of calls	inactive
Zmynd8 (zinc finger, MYND-type containing 8)	1	-1.08	enough cells in well	inactive
Dand5 (DAN domain family member 5, BMP antagonist)	1	0.07	enough cells in well	inactive
C1s1 (complement component 1, s subcomponent 1)	1	0.4	enough cells in well	inactive
Slc4a9	1		fewer than 50 cells per well; well left out of calls	inactive
Eral1 (Era like 12S mitochondrial rRNA chaperone 1)	1	-0.06	enough cells in well	inactive
Slc1a4	1	0.36	enough cells in well	inactive
Or10x4 (olfactory receptor family 10 subfamily X member 4)	1		fewer than 50 cells per well; well left out of calls	inactive
Zfy2 (zinc finger protein 2, Y-linked)	1		fewer than 50 cells per well; well left out of calls	inactive
Kcnq4 (potassium voltage-gated channel, subfamily Q, member 4)	1	-1.53	enough cells in well	active
Auts2 (autism susceptibility candidate 2)	1	-1.33	enough cells in well	active
Cxxc5 (CXXC finger 5)	1	1.28	enough cells in well	inactive
Zfp64 (zinc finger protein 64)	1	0	enough cells in well	inactive
Or4d2b (olfactory receptor family 4 subfamily D member 2B)	1		fewer than 50 cells per well; well left out of calls	inactive
Sp8 (trans-acting transcription factor 8)	1	1.03	enough cells in well	inactive
Ruvbl1 (RuvB-like AAA ATPase 1)	1	0.42	enough cells in well	inactive
Tas2r129 (taste receptor, type 2, member 129)	1	4.8	enough cells in well	active
Vmn1r202 (vomeronasal 1 receptor 202)	1	1.67	enough cells in well	inactive
Mthfd2	1	-0.43	enough cells in well	inactive
Fstl4 (follistatin-like 4)	1	-1.31	enough cells in well	active
Ppp1r14a (protein phosphatase 1, regulatory inhibitor subunit 14A)	1	-0.71	enough cells in well	inactive
Arhgef37 (Rho guanine nucleotide exchange factor 37)	1	2.2	enough cells in well	inactive
Zfp112 (zinc finger protein 112)	1		fewer than 50 cells per well; well left out of calls	inactive
Txndc12 (thioredoxin domain containing 12 (endoplasmic reticulum))	1		fewer than 50 cells per well; well left out of calls	inactive
Pcyt1a (phosphate cytidylyltransferase 1, choline, alpha isoform)	1	0.66	enough cells in well	inactive
Blnk (B cell linker)	1	0.07	enough cells in well	inactive
Bicd2 (BICD cargo adaptor 2)	1	0.87	enough cells in well	inactive
Ngf (nerve growth factor)	1	1.64	enough cells in well	inactive
Or10ak7 (olfactory receptor family 10 subfamily AK member 7)	1	1.83	enough cells in well	inactive
Or10ak7 (olfactory receptor family 10 subfamily AK member 7)	2	-0.62	enough cells in well	inactive
Eqtn (equatorin, sperm acrosome associated)	1	-0.79	enough cells in well	inactive

Reagents above with an active call:
gene	reagent	Tnf reporter robust z-score	fewer than 50 cells in well	outcome
Kcnq4 (potassium voltage-gated channel, subfamily Q, member 4)	1	-1.53	enough cells in well	active
Auts2 (autism susceptibility candidate 2)	1	-1.33	enough cells in well	active
Tas2r129 (taste receptor, type 2, member 129)	1	4.8	enough cells in well	active
Fstl4 (follistatin-like 4)	1	-1.31	enough cells in well	active
